# Experimental data reported in patent US9605025B2, “Antagonist peptide of the bond between CD47 and a protein belonging to the thrombospondin family” (Universite de Reims Champagne Ardenne, priority 2011, dated 2017).
# Chains of the proteins cited; added tags and fusions are not shown. Residues count along the entry.
# UniProt Q08722, residues 19-323: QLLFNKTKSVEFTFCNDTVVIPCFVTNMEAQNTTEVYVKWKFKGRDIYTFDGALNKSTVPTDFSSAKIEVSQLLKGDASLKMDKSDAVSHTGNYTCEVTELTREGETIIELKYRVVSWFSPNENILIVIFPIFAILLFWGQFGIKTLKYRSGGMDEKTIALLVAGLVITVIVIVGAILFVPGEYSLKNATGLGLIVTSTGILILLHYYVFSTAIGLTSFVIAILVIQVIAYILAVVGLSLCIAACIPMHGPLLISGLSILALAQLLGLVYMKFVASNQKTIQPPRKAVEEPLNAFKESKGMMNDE
# No constants are given. Whether binding was seen depends on the method and setting. Some entries that bind do so weakly or less than the wild type.
# Molecular target: CD47 receptor (UniProt Q08722)
# Test: inferred by the filing from FTC-133 viability assay with 4N1 and CD47-blocking antibody B6H12
binder,measurement,value
KRFYVVMWK [peptide 4N1 (…)],binding,binds
